Test results from the supplement of paper PMC5407854, “Inhibitor of ppGalNAc-T3-mediated O-glycosylation blocks cancer cell invasiveness and lowers FGF23 levels” (eLife, 2017).
The list shows a part of the results. Small differences around the control level are noise.

Key:
ppGalNAc-T3 sensor = assay: T3 sensor activation Q score (MG/GFP ratio z-score vs DMSO controls) (SD units); higher = more sensor activation (inhibition of ppGalNAc-T3 glycosylation); details: HEK293 sensor cells; 10 µM; 6 h
Experimental: (§1)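 Cells were treated with compound at 10 uM for 6 h, then MG/GFP ratio was read by flow cytometry (10,000 cells per well, duplicate wells). Q = (R - R_neg)/SD_neg relative to DMSO vehicle controls; the signal rises when the glycosyltransferase is inhibited.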

ppGalNAc-T2 sensor = assay: T2 sensor activation Q score (MG/GFP ratio z-score vs DMSO controls) (SD units); higher = more sensor activation (inhibition of ppGalNAc-T2 glycosylation); details: HEK293 sensor cells; 10 µM; 6 h
Experimental: as §1

Row | SMILES | T3 sensor activation Q score (ppGalNAc-T3 sensor) | T2 sensor activation Q score (ppGalNAc-T2 sensor)
1 | CC(C)(C)NC(=O)c1ccc(Cl)c(Cl)c1 | -0.29 | -1.07
2 | CCN(C(=O)c1ccc(-c2ccccc2)cc1)c1ccccc1 | -0.165 | 1.42
3 | C[C@H](NC(=O)Cc1ccccc1)c1ccccc1 | 0.35 | -0.47
4 | COc1ccc(CNC2CCCC(C)C2)cc1 (stereo not given) | 0.765 | -0.105
5 | NC1C2CN3CCN(C2)CC1(Cc1ccccc1)C3 (stereo not given) | -0.05 | 0
6 | NNC(=O)c1cc(-c2ccccc2)n[nH]1 |  | -0.445
7 | COc1cc(OC)c(OC)cc1CN1CCN(c2cccc(C)c2C)CC1 |  | 0.325
8 | COc1cc2c(cc1OC)CN(Cc1ccc(N(C)C)cc1)CC2 |  | 0.605
9 | O=C(c1ccc(Br)cc1)N1CCN(c2ccc([N+](=O)[O-])cc2)CC1 |  | 0.135
10 | Cc1ccc(NC(=O)Nc2ccc(Cl)cc2)cc1 |  | 0.69
11 | CCOc1ccc(-c2cnc3ccccc3n2)cc1 |  | -1.04
12 | O=c1nc2cc3[nH]c4c(=O)c5ccccc5c4[nH]c3cc2n1 |  | -0.295
13 | CC1CC(Nc2ccccc2)c2ccccc2N1C(=O)c1cccs1 (stereo not given) |  | -1.54
14 | O=C(COc1ccc(Cl)cc1Cl)Nc1cccc(Cl)c1Cl |  | 0.67
15 | COc1cc2c(cc1OC)C(c1ccccc1[N+](=O)[O-])NCC2 (stereo not given) |  | -0.865
16 | CC(=O)C1=C(O)C(=O)N(c2ccccn2)C1c1ccccc1F (stereo not given) |  | 0.31
17 | CC1(C)Cc2ccccc2C(Nn2cnnc2)=N1 |  | 0.95
18 | COc1ccc(CN2CCN(C/C=C/c3ccccc3)CC2)c(O)c1 |  | -0.83
19 | Cc1ccc(N2C(=O)CC(N3CCN(c4ccc(F)cc4)CC3)C2=O)c(C)c1 (stereo not given) |  | -0.035
20 | CCCN(CCO)Cc1cccc(Cl)c1 |  | 0.695

Part of the list above, tab-delimited.
Row	SMILES	T3 sensor activation Q score (ppGalNAc-T3 sensor)	T2 sensor activation Q score (ppGalNAc-T2 sensor)
13	CC1CC(Nc2ccccc2)c2ccccc2N1C(=O)c1cccs1 (stereo not given)		-1.54
14	O=C(COc1ccc(Cl)cc1Cl)Nc1cccc(Cl)c1Cl		0.67
